Results as given in PubChem BioAssay AID445 (National Center for Advancing Translational Sciences (NCATS), 2006).
The other results are listed elsewhere or left out. The main result of the screen is listed elsewhere. These columns were measured beside it and carry no call. Most of these compounds were active or inconclusive in the main read-out, so they are no random draw. Words in brackets tell the shape of the fitted curve; partial curves, single points and poor fits give uncertain potencies.

Assay: IkB Signaling
Details: ABC-DLBCL IkBa-CBG/CBR dual luciferase ratio (green luciferase fused to IkBa over red control in OCI-Ly3 lymphoma cells), 4 h
Method in brief: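 Curves were fitted separately to fusion (green), unfused (red) and ratio luminescence, then classed by r2, magnitude and activity. Cells: OCI-Ly3, 4 h compound plus doxycycline at 37C; 10 uM MG-132 defined full response.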

[1] = measured here: control luc red channel unless noted

Cc1ccc(NC(=O)Cn2c(-c3cncs3)nc3ccccc32)cc1Br
AC50 [1]: 1.26 µM [falling, full curve]

COc1cc2c(C(=O)N(C)c3cc(Cl)ccc3OC)cn(CC(C)C)c(=O)c2cc1OC
AC50 [1]: 20 µM [falling, partial curve]

Cc1nn(CCCC(=O)Nc2cccc(F)c2)c(=O)c2c1sc1ccccc12
AC50 [1]: 7.94 µM [falling, partial curve]

O=C(Nc1ccc2c(c1)OCO2)c1c(F)c(F)c(F)c(F)c1F
AC50 [1]: 3.98 µM [falling, partial curve]

COC(=O)c1ccc(NC(=O)Nc2ccc(F)cc2)cc1
AC50 [1]: 39.8 µM [falling, single point]

Cc1ccc(NC(=O)Cn2c(=O)c(CNc3ccccc3)cc3cc4c(cc32)OCCO4)cc1
AC50 [1]: 7.94 µM [falling, partial curve]

CCN(CC)C(=O)C1=C(C)Nc2nc3ccccc3n2C1c1cccc(Cl)c1 (stereo not given)
AC50 [1]: 12.6 µM [falling, partial curve]

COc1cc(CNc2ccc3[nH]c(=O)[nH]c3c2)cc(Cl)c1OCc1ccccc1F
AC50 [1]: 0.1 µM [falling, full curve]

Cc1ccc(CNC(=O)c2ccc3c(c2)N(Cc2cccc(C)c2)C(=O)CS3)cc1
AC50 [1]: 6.31 µM [falling, full curve]

Cc1ccc(-c2nn(CC(=O)Nc3cccc(C(F)(F)F)c3)c(=O)c3ccccc23)cc1
AC50 [1]: 3.98 µM [falling, full curve]

Cc1cccc(C)c1NC(=O)CSCc1cnn(-c2ccccc2)c1-n1cccc1
AC50 [1]: 25.1 µM [falling, single point]

Cc1c(C(=O)N2CCN(c3ccccn3)CC2)oc2ccccc12
AC50 [1]: 31.6 µM [rising, partial curve] [measured here: IkB-luc green channel]

COc1ccccc1-c1cc(C(=O)Nc2ccccc2SC)no1
AC50 [1]: 0.000158 µM [falling, full curve, poor fit]

O=C(Nc1scc(-c2ccccc2)c1C(=O)O)c1ccco1
AC50 (measured here: IkB-luc green channel): 0.00631 µM [rising, full curve] | AC50 (measured here: control luc red channel): 7.94 µM [falling, partial curve]

CCOc1ccc(C2=CC(c3cc(Br)ccc3F)n3ncnc3N2)cc1Cl (stereo not given)
AC50 [1]: 39.8 µM [falling, single point]

CCOc1ccc(S(=O)(=O)N(C(=O)c2ccncc2)c2ccc3oc(C)c(C(=O)OC)c3c2)cc1
AC50 [1]: 5.01 µM [falling, partial curve]

Cc1nn(CC(=O)Nc2cccc(C(F)(F)F)c2)c(=O)c2nn(-c3ccccc3)c(C)c12
AC50 [1]: 12.6 µM [falling, single point]

CCOC(=O)c1c(NC(=O)Cn2nnc3ccccc32)sc2c1CCC(C)C2 (stereo not given)
AC50 [1]: 7.94 µM [falling, partial curve]

CN(C(=O)CSc1nc2ccccc2n1Cc1cccc(C(F)(F)F)c1)c1ccccc1
AC50 [1]: 25.1 µM [falling, partial curve]

O=C(COC(=O)c1cc(-c2ccccc2)nc2c(Cl)cccc12)c1ccc(F)cc1
AC50 [1]: 2.51 µM [falling, full curve, poor fit]

COc1cccc(CNC(=O)c2nn(C)c3c2CS(=O)(=O)c2ccccc2-3)c1
AC50 [1]: 39.8 µM [falling, single point]

COc1ccc(NC(=O)CSC2=Nc3ccccc3C3=NC(CCC(=O)NCCc4ccccc4)C(=O)N23)c(OC)c1 (stereo not given)
AC50 [1]: 10 µM [falling, partial curve]

COc1ccc(CNC(=O)c2cc(C)nc3c2c(C)nn3-c2cccc(Cl)c2C)cc1
AC50 [1]: 2 µM [falling, partial curve]

CC(C)CN(CCCNC(=O)c1cn(C)c2ccc(S(=O)(=O)N(C)C3CCCCC3)cc2c1=O)CC(C)C
AC50 [1]: 0.0631 µM [falling, full curve, poor fit]

COc1cccc(NC(=O)C(CCSC)NC(=O)C2CCC(C)CC2)c1 (stereo not given)
AC50 [1]: 2.51 µM [falling, full curve]

COc1ccc(CCNC(=O)CCn2c(=O)c3cccn3c3cccnc32)c(OC)c1OC
AC50 [1]: 0.00251 µM [rising, full curve]

Cc1cccc(NC(=O)N2CCC(n3c(C)nc4cccnc43)CC2)c1
AC50 [1]: 3.16 µM [rising, partial curve]

O=C(CSc1nccn1Cc1ccccc1)Nc1ccc2c(c1)OCO2
AC50 [1]: 6.31 µM [rising, single point]

CC1CCN(c2nc3c(c(=O)n(C)c(=O)n3C)n2Cc2ccccc2)CC1
AC50 [1]: 25.1 µM [falling, single point]

CCC(C)(C)NC(=O)Cn1c(=O)ccc2cc(S(=O)(=O)N3CCC(C)CC3)ccc21
AC50 [1]: 0.631 µM [rising, full curve]

CCOC(=O)N1CCC(NC(=O)c2ccc3c(c2)N(Cc2cc(C)ccc2C)C(=O)c2ccccc2S3=O)CC1 (stereo not given)
AC50 [1]: 15.8 µM [falling, partial curve]

CCOc1cc(C(=O)NCCc2csc(-c3ccc(C)cc3)n2)cc(OCC)c1OCC
AC50 [1]: 39.8 µM [falling, single point]

CN(C(=O)c1cc2c(=O)n3ccccc3nc2n1C)c1ccccc1
AC50 [1]: 20 µM [falling, single point]

CCOC(=O)c1cnc2c(-c3ccccc3)cnn2c1N
AC50 [1]: 0.398 µM [falling, full curve, poor fit]

Cc1ccc(Cl)cc1N1CCN(C(=O)C2CCN(S(=O)(=O)c3ccc4c(c3)oc(=O)n4C)CC2)CC1
AC50 [1]: 6.31 µM [falling, partial curve]

Cc1cc(C)c2c(n1)nn1c(C)c(CCC(=O)NCc3ccc(Cl)cc3)c(C)nc21
AC50 [1]: 31.6 µM [falling, single point]

c1ccc(-c2ccc(-c3nc(-c4ccccn4)no3)cc2)cc1
AC50 [1]: 10 µM [falling, partial curve]

Cc1ccc(OCc2nc(-c3ccc(C(=O)N4CCN(c5ccccc5)CC4)cc3)oc2C)cc1
AC50 [1]: 3.98 µM [falling, full curve, poor fit]

O=C(NCc1ccccc1Cl)c1ccc(Nc2nc3ccccc3n3nnnc23)cc1
AC50 [1]: 1.26 µM [falling, full curve]
